Measurements taken from the supplement of paper PMC10849652.
Some of the results follow.

Chains of the proteins cited; added tags and fusions are not shown. Lines headed by an entry give the natural chain unless they say otherwise; changes in a name come on top.
UniProt Q96SZ5, whole entry, looked up: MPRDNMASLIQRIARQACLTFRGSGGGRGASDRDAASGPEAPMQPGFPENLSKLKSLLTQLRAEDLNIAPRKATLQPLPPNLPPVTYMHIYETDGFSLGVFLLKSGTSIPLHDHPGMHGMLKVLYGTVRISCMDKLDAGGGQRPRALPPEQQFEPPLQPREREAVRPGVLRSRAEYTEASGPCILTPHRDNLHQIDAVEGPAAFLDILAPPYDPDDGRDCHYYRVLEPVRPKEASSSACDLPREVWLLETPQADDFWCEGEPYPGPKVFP
UniProt Q9BV57: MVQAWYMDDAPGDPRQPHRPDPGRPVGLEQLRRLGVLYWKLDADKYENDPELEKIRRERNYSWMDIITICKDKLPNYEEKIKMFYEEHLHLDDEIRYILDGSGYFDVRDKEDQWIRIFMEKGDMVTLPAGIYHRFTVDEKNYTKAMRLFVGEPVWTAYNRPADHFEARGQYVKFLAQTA
UniProt P00568: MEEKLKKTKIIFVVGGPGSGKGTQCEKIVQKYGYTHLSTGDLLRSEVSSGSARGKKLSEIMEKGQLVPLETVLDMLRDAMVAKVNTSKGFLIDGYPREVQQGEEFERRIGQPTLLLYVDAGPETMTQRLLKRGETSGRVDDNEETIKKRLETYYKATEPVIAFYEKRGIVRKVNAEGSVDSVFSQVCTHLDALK
UniProt P55196: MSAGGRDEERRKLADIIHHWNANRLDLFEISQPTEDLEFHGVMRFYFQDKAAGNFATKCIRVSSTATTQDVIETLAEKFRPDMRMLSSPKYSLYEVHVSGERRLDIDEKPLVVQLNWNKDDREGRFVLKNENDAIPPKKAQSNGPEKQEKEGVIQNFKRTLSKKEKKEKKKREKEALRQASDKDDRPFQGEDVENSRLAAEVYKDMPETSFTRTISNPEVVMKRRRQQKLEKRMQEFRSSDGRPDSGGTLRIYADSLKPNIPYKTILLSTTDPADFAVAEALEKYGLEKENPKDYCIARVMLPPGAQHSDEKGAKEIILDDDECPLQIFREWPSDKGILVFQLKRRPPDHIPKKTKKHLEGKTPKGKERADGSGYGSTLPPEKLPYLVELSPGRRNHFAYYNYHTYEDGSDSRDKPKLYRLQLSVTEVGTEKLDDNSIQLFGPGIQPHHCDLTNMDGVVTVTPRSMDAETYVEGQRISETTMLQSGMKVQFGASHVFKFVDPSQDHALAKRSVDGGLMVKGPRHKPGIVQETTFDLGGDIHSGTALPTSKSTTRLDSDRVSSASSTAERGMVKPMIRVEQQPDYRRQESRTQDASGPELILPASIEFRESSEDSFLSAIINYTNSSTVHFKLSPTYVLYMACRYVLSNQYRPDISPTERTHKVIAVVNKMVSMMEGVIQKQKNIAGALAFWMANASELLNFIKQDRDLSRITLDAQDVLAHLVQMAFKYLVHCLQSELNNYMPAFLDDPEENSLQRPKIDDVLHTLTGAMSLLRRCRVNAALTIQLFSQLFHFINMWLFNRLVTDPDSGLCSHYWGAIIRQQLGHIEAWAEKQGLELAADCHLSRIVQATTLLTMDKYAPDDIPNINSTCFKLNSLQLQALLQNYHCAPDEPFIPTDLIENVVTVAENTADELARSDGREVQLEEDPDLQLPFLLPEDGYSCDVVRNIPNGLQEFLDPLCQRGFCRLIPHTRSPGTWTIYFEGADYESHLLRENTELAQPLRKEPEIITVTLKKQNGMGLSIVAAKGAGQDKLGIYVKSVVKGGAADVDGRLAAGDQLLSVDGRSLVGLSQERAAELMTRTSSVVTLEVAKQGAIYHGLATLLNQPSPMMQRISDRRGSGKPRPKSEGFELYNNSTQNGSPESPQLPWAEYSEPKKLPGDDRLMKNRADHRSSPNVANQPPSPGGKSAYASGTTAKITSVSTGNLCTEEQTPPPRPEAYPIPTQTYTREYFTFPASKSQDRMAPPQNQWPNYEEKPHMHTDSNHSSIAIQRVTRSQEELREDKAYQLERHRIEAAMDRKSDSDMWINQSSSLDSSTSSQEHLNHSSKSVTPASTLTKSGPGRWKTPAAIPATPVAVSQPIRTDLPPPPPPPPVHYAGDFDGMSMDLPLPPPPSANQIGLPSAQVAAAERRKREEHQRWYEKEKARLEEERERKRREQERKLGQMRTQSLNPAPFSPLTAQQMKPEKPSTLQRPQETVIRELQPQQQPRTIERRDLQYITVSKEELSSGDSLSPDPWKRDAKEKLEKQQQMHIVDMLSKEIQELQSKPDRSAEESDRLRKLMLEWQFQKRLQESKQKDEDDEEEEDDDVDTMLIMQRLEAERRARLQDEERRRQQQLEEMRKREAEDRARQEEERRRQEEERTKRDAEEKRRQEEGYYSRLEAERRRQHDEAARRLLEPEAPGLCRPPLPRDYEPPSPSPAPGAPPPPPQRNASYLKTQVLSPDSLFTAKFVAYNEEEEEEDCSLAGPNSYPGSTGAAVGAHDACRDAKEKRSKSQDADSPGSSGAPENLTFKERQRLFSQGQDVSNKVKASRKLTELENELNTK
UniProt Q9BRR6: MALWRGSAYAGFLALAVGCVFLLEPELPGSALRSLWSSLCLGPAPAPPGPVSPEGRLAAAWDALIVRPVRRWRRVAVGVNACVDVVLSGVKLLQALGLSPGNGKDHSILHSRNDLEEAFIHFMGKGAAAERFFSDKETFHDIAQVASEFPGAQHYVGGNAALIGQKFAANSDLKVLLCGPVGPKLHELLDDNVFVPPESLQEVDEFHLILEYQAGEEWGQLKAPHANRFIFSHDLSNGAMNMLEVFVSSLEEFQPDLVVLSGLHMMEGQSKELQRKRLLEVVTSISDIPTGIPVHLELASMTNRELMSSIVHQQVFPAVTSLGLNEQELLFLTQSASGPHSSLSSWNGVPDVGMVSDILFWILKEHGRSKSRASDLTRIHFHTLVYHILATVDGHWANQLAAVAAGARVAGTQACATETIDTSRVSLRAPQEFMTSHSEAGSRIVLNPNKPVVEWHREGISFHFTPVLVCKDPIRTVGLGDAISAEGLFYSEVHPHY
UniProt P31749: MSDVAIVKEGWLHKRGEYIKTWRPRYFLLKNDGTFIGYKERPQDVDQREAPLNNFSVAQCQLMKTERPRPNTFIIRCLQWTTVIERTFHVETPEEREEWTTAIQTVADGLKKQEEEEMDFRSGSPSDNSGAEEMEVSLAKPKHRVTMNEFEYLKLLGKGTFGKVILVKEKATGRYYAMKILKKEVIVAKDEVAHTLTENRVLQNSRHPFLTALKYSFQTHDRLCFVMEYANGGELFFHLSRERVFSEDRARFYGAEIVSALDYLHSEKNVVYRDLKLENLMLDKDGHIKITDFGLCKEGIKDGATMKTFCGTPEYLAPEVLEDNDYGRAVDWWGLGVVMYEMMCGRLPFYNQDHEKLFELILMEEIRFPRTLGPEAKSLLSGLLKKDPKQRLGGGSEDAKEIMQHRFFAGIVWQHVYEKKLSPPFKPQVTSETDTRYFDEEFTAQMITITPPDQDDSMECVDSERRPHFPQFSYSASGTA
UniProt P31751: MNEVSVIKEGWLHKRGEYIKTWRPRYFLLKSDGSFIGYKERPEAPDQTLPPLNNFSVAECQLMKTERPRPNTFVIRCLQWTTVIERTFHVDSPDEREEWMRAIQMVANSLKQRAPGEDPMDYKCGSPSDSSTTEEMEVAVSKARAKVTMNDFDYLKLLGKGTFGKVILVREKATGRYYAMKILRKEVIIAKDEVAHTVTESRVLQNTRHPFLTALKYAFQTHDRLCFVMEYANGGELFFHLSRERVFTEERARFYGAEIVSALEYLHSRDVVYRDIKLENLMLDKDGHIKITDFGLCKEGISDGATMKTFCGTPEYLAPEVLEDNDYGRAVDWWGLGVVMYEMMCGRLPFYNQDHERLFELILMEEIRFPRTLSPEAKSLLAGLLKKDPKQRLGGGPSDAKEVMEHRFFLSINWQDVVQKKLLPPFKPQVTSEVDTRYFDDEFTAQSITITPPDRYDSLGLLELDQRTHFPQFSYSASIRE
UniProt Q96Q83: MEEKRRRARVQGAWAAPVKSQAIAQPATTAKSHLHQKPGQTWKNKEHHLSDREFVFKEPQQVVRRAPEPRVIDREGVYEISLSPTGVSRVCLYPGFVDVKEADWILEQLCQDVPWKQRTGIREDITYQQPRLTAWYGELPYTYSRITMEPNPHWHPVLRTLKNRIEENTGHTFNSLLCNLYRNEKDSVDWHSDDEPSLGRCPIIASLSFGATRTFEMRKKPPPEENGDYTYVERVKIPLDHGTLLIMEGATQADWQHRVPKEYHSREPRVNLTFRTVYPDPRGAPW
UniProt Q9BT22: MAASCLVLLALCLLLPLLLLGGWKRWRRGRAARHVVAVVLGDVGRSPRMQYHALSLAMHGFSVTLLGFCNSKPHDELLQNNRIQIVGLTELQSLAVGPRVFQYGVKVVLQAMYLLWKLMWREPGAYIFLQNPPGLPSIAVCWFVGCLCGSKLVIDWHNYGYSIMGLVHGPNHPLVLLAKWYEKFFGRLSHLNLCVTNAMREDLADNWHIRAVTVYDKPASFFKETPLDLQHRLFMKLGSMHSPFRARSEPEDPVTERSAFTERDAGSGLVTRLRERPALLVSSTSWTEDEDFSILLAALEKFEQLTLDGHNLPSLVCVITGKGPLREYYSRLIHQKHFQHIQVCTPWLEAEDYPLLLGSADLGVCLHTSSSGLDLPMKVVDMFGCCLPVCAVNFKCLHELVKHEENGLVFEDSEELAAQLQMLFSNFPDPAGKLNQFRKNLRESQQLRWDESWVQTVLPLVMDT
UniProt Q9NP73: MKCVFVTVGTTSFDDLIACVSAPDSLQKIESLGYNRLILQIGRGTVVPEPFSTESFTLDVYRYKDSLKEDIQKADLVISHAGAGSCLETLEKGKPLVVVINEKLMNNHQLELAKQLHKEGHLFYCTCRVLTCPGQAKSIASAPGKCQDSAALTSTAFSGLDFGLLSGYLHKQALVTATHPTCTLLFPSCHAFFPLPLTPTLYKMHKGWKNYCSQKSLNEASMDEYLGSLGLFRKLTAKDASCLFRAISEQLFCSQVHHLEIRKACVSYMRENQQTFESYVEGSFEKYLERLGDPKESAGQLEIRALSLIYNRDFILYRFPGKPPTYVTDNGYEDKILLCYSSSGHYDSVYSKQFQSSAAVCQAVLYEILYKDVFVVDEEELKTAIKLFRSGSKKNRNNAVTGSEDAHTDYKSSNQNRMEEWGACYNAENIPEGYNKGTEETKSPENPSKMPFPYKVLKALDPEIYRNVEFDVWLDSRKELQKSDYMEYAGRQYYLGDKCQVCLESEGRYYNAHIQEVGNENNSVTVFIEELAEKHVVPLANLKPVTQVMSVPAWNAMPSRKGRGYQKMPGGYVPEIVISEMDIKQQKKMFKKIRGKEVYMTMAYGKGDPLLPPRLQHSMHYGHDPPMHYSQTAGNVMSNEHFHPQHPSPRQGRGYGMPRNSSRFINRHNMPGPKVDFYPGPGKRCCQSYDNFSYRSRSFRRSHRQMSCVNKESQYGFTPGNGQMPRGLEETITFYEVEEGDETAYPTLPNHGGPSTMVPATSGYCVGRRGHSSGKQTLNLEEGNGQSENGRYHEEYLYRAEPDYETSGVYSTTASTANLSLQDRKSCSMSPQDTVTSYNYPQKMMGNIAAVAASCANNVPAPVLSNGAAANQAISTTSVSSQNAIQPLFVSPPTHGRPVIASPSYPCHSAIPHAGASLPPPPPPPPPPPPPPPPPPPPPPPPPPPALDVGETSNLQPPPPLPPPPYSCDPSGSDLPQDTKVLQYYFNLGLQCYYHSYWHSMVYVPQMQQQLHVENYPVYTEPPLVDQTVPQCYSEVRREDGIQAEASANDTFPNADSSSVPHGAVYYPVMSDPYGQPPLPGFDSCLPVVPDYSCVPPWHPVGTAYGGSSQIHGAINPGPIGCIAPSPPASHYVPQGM
UniProt Q01432: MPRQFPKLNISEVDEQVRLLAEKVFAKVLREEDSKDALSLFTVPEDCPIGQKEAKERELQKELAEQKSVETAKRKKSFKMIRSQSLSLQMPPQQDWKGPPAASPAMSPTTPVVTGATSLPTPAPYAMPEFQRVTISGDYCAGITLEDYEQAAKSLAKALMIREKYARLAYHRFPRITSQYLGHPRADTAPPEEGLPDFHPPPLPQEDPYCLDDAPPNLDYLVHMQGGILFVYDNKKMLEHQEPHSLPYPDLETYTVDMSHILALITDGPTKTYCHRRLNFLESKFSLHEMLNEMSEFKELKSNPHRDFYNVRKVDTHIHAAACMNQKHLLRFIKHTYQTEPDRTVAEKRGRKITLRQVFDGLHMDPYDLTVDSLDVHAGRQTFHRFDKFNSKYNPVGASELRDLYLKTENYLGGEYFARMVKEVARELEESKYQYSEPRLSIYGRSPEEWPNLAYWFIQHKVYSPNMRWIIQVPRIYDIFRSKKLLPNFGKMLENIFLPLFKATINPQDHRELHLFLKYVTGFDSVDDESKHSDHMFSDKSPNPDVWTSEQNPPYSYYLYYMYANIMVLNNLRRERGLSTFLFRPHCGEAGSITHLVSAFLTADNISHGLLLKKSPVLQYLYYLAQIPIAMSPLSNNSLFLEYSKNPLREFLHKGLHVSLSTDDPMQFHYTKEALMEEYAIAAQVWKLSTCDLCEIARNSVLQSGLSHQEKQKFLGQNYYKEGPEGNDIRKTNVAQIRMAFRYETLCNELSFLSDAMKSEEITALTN

Columns and labels:
Test in all cases: log2 fold change, soluble protein after heating vs DMSO (PISA); higher = thermal stabilisation; K562 cells, 10 uM, 30 min; active = over 0.2 and 3.5 SD of the protein, either way, in both replicates (recomputed)
[1] = compound: NC(=O)Nc1cc(-c2cccc(F)c2)sc1C(=O)N[C@H]1CCCNC1
Method in brief: (§1)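 Soluble protein was quantified by TMTpro 16plex LC-MS/MS after channel sums were equalised. It was obtained as the supernatant after 21,000xg for 90 min from pooled aliquots of K562 cells (2×10^6 cells/mL, 10 μM compound, 30 min) heated for 3 min across 48°C-58°C and extracted in PBS with 0.5% NP-40 at 4°C. Thermal stability values are relative to control samples and come from duplicates. They are given as log2 fold changes.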

[2] = compound: NC(=O)c1cnc(N[C@@H]2CCCC[C@@H]2N)nc1Nc1cccc(-n2nccn2)c1
Method in brief: as §1

[3] = compound: NC1(c2ccc(-c3nc4ccn5c(=O)[nH]nc5c4cc3-c3ccccc3)cc2)CCC1
Method in brief: as §1

[4] = compound: NCC(=O)Nc1ccc(-n2nc(C(F)(F)F)cc2-c2ccc3c(ccc4ccccc43)c2)cc1
Method in brief: as §1

[5] = compound: Nc1ccccc1NC(=O)c1ccc(CNC(=O)OCc2cccnc2)cc1 [entinostat]
Method in brief: as §1

[6] = compound: O=C(CCCCCCC(=O)Nc1ccccc1)NO [vorinostat]
Method in brief: as §1

[7] = compound: O=C(CCCCCCNC(=O)c1cnc(N(c2ccccc2)c2ccccc2Cl)nc1)NO [citarinostat]
Method in brief: as §1

[8] = compound: O=C(O)c1ccc2c(c1)nc(Nc1cccc(Cl)c1)c1ccncc12 [silmitasertib]
Method in brief: as §1

[9] = compound: O=C1NC(=O)C(c2cnc3ccccn23)=C1c1cn2c3c(cc(F)cc13)CN(C(=O)N1CCCCC1)CC2
Method in brief: as §1

[10] = compound: c1cc(OCCN2CCCCC2)cc(-c2n[nH]c3ccc(-c4nnc[nH]4)cc23)c1
Method in brief: as §1

Row | Target | log2 fold change [1] | log2 fold change [2] | log2 fold change [3] | log2 fold change [4] | log2 fold change [5] | log2 fold change [6] | log2 fold change [7] | log2 fold change [8] | log2 fold change [9] | log2 fold change [10]
1 | ALDH1A1 (UniProt P00352) | inactive: 0.008 | inactive: 0.021 | inactive: -0.025 | inactive: 0.047 | inactive: -0.034 | inactive: 0.085 | inactive: 0.02 | inactive: -0.025 | inactive: -0.088 | inactive: -0.041
2 | AIMP2 (UniProt Q13155) | inactive: 0.041 | inactive: 0.002 | inactive: 0.156 | inactive: 0.104 | inactive: -0.033 | inactive: 0.037 | inactive: -0.097 | inactive: 0.166 | inactive: 0.369 | inactive: -0.151
3 | ALKBH5 (UniProt Q6P6C2) | inactive: 0.031 | inactive: -0.021 | inactive: 0.102 | inactive: 0.052 | inactive: -0.076 | inactive: 0.18 | inactive: 0.109 | inactive: 0.033 | inactive: 0.076 | inactive: 0.042
4 | AFTPH isoform 9 (UniProt Q6ULP2) | inactive: -0.04 | inactive: -0.109 | inactive: -0.072 | inactive: -0.066 | inactive: 0.037 | inactive: 0.026 | inactive: 0.05 | inactive: 0 | inactive: 0.125 | inactive: 0.066
5 | ADO (UniProt Q96SZ5) | inactive: 0.007 | inactive: 0.023 | inactive: 0.005 | inactive: 0.009 | inactive: -0.02 | inactive: -0.021 | inactive: -0.017 | inactive: -0.028 | inactive: -0.037 | inactive: 0.1
6 | ADI1 (UniProt Q9BV57) | inactive: -0.009 | inactive: -0.163 | inactive: -0.177 | inactive: -0.171 | inactive: -0.03 | inactive: -0.129 | inactive: 0.065 | inactive: 0.036 | inactive: -0.056 | inactive: -0.02
7 | AK1 (UniProt P00568) | inactive: -0.038 | inactive: -0.106 | inactive: -0.096 | inactive: -0.058 | inactive: -0.014 | inactive: 0.039 | inactive: 0.017 | inactive: -0.016 | inactive: -0.04 | inactive: -0.001
8 | AFDN isoform 1 (UniProt P55196) | inactive: -0.016 | inactive: 0.048 | inactive: -0.043 | inactive: -0.031 | inactive: 0.047 | inactive: -0.033 | inactive: 0.079 | inactive: 0.002 | inactive: -0.054 | inactive: -0.141
9 | AGPAT5 (UniProt Q9NUQ2) | inactive: -0.044 | inactive: 0.016 | inactive: -0.029 | inactive: -0.047 | inactive: -0.027 | inactive: -0.002 | inactive: 0.045 | inactive: -0.001 | inactive: -0.076 | inactive: -0.027
10 | ADD3 isoform 2 (UniProt Q9UEY8) | inactive: 0.03 | inactive: 0.059 | inactive: -0.009 | inactive: -0.002 | inactive: -0.018 | inactive: -0.119 | inactive: 0.08 | inactive: -0.002 | inactive: 0.019 | inactive: -0.02
11 | ADPGK (UniProt Q9BRR6) | inactive: -0.103 | inactive: -0.025 | inactive: -0.027 | inactive: -0.023 | inactive: -0.025 | inactive: 0.003 | inactive: 0.017 | inactive: 0.04 | inactive: -0.062 | inactive: -0.078
12 | AIMP1 isoform 2 (UniProt Q12904) | inactive: 0.158 | inactive: 0.02 | inactive: 0.294 | inactive: 0.099 | inactive: 0.016 | inactive: 0.064 | inactive: -0.067 | inactive: 0.297 | inactive: 0.167 | inactive: -0.164
13 | AK4 (UniProt P27144) | inactive: -0.025 | inactive: -0.011 | inactive: -0.054 | inactive: -0.097 | inactive: 0.056 | inactive: -0.009 | inactive: 0.03 | inactive: 0.006 | inactive: -0.039 | inactive: -0.04
14 | AMDHD2 isoform 3 (UniProt Q9Y303) | inactive: 0.011 | inactive: -0.037 | inactive: 0.031 | inactive: 0.005 | inactive: -0.03 | inactive: 0.012 | inactive: 0.017 | inactive: -0.021 | inactive: -0.059 | inactive: -0.017
15 | AKR1C3 (UniProt P42330) | inactive: 0.119 | inactive: 0.064 | inactive: 0.235 | inactive: -0.032 | inactive: 0.106 | inactive: -0.058 | inactive: 0.049 | inactive: 0.126 | inactive: 0.211 | inactive: 0.154
16 | AIDA (UniProt Q96BJ3) | inactive: -0.056 | inactive: -0.002 | inactive: 0.003 | inactive: -0.073 | inactive: 0.029 | inactive: 0.015 | inactive: 0.043 | inactive: 0.057 | inactive: -0.069 | inactive: -0.024
17 | AKT1 (UniProt P31749) | inactive: -0.085 | inactive: -0.276 | active: 1.61 | inactive: -0.002 | inactive: 0.201 | inactive: -0.024 | inactive: 0.138 | inactive: 0.004 | inactive: 0.1 | inactive: 0.027
18 | AHCTF1 isoform 2 (UniProt Q8WYP5) | inactive: -0.094 | inactive: 0.017 | inactive: 0.01 | inactive: 0.044 | inactive: -0.01 | inactive: 0.072 | inactive: 0.128 | inactive: -0.121 | inactive: -0.01 | inactive: -0.069
19 | AFP (UniProt P02771) | inactive: -0.146 | inactive: 0.111 | inactive: 0.179 | inactive: 0.064 | inactive: -0.003 | inactive: 0.09 | inactive: -0.071 | inactive: 0.104 | inactive: 0.238 | inactive: 0.899
20 | AKT2 (UniProt P31751) | inactive: -0.008 | active: -0.266 | active: 1.18 | inactive: -0.051 | inactive: 0.085 | inactive: 0.022 | inactive: 0.077 | inactive: -0.026 | inactive: -0.017 | inactive: -0.013
21 | ALKBH4 (UniProt Q9NXW9) | inactive: -0.009 | inactive: -0.051 | active: -0.427 | inactive: 0.097 | inactive: -0.058 | inactive: -0.031 | inactive: 0.079 | inactive: 0.165 | inactive: 0 | inactive: -0.014
22 | ALKBH3 (UniProt Q96Q83) | inactive: -0.011 | inactive: -0.023 | inactive: -0.018 | inactive: 0.112 | inactive: -0.039 | inactive: -0.02 | inactive: 0.014 | inactive: -0.006 | inactive: -0.07 | inactive: 0.021
23 | ALYREF (UniProt Q86V81) | inactive: 0.003 | inactive: 0.088 | inactive: 0.317 | inactive: 0.147 | inactive: -0.096 | inactive: -0.034 | inactive: -0.125 | inactive: 0.156 | inactive: 0.271 | inactive: -0.09
24 | ADSL (UniProt P30566) | inactive: 0.039 | inactive: 0.035 | inactive: 0.027 | inactive: 0.018 | inactive: -0.01 | inactive: -0.044 | inactive: -0.006 | inactive: -0.016 | inactive: -0.057 | inactive: -0.005
25 | AMN1 (UniProt Q8IY45) | inactive: 0.038 | inactive: 0.021 | inactive: -0.082 | inactive: 0.219 | inactive: -0.185 | inactive: 0.204 | inactive: 0.066 | inactive: 0.177 | inactive: -0.032 | inactive: 0.131
26 | ALG1 (UniProt Q9BT22) | inactive: -0.056 | inactive: -0.024 | inactive: -0.19 | inactive: -0.072 | inactive: -0.06 | inactive: -0.039 | inactive: -0.004 | inactive: -0.014 | inactive: -0.043 | inactive: 0.018
27 | ANAPC10 (UniProt Q9UM13) | inactive: 0.061 | inactive: -0.005 | inactive: -0.037 | inactive: 0.042 | inactive: 0.043 | inactive: 0.094 | inactive: 0.237 | inactive: -0.026 | inactive: -0.048 | inactive: 0.031
28 | ALG13 (UniProt Q9NP73) | inactive: 0.081 | inactive: -0.029 | inactive: -0.114 | inactive: -0.103 | inactive: 0.092 | inactive: 0.001 | inactive: 0.07 | inactive: -0.012 | inactive: -0.085 | inactive: -0.097
29 | AMPD3 isoform 4 (UniProt Q01432) | inactive: 0.001 | inactive: -0.039 | inactive: -0.125 | inactive: -0.001 | inactive: -0.006 | inactive: 0.035 | inactive: 0 | inactive: 0.011 | inactive: -0.044 | inactive: -0.026

Another view of some results above:
Row	Target	log2 fold change [1]	log2 fold change [2]	log2 fold change [3]	log2 fold change [4]	log2 fold change [5]	log2 fold change [6]	log2 fold change [7]	log2 fold change [8]	log2 fold change [9]	log2 fold change [10]
19	AFP (UniProt P02771)	inactive: -0.146	inactive: 0.111	inactive: 0.179	inactive: 0.064	inactive: -0.003	inactive: 0.09	inactive: -0.071	inactive: 0.104	inactive: 0.238	inactive: 0.899
20	AKT2 (UniProt P31751)	inactive: -0.008	active: -0.266	active: 1.18	inactive: -0.051	inactive: 0.085	inactive: 0.022	inactive: 0.077	inactive: -0.026	inactive: -0.017	inactive: -0.013
